According to PMC5345068 (Scientific Reports, 2017):

Experiments:
[1] = test system: 3T3 cells; assay: confocal fluorescence microscopy, 3T3; type: cell-based, mouse; conditions: 25 μM, 4 hours, excitation 488 nm; compared among treatments, Fig. S-14
[2] = general procedure: Fmoc solid-phase peptide synthesis; 2-chlorotrityl chloride resin (1.0–1.2 mmol/g); HBTU; conditions: conjugation step

Molecule	fluorescent intensity of 3T3 cells (confocal) [1]	conjugation yield [2]
COc1cc(/C=C/C(=O)CC(=O)/C=C/c2ccc(O)c(OC)c2)ccc1O [Cur, Curcumin]	similar	
COc1cc(/C=C/C(=O)CC(=O)/C=C/c2ccc(OC(=O)CCCC(=O)NCCCC[C@H](NC(=O)[C@H](Cc3ccc(O)cc3)NC(=O)[C@H](Cc3ccccc3)NC(=O)[C@H](Cc3ccccc3)NC(=O)CNC(=O)[C@@]3(C)CC[C@]4(C)CC[C@]5(C)C(=CC(=O)[C@@H]6[C@@]7(C)CC[C@H](O)C(C)(C)[C@@H]7CC[C@]65C)[C@@H]4C3)C(=O)N[C@@H](CCC(=O)O)C(=O)NCCSSCCNC(=O)CCC(=O)N[C@@H](CCC(=O)O)C(=O)N[C@@H](CCCNC(=N)N)C(=O)NCC(=O)N[C@@H](CC(=O)O)C(=O)O)c(OC)c2)ccc1O [GA-Cur, GA–GFFYK(Cur)E-ss-ERGD]	similar	
COc1cc(/C=C/C(=O)CC(=O)/C=C/c2ccc(OC(=O)CCCC(=O)NCCCC[C@H](NC(=O)[C@H](Cc3ccc(O)cc3)NC(=O)[C@H](Cc3ccccc3)NC(=O)[C@H](Cc3ccccc3)NC(=O)CNC(=O)Cc3ccc4ccccc4c3)C(=O)N[C@@H](CCC(=O)O)C(=O)NCCSSCCNC(=O)CCC(=O)N[C@@H](CCC(=O)O)C(=O)N[C@@H](CCCNC(=N)N)C(=O)NCC(=O)N[C@@H](CC(=O)O)C(=O)O)c(OC)c2)ccc1O [Nap-Cur, Nap–GFFYK(Cur)E-ss-ERGD]	similar	
GA–GFFYK(Cur)E-ss-ERGD		about 20%
